The target in the experiment is T1, MtbPdtaS-GFP (M. tuberculosis) (UniProt P9WGL5).
T1 sequence: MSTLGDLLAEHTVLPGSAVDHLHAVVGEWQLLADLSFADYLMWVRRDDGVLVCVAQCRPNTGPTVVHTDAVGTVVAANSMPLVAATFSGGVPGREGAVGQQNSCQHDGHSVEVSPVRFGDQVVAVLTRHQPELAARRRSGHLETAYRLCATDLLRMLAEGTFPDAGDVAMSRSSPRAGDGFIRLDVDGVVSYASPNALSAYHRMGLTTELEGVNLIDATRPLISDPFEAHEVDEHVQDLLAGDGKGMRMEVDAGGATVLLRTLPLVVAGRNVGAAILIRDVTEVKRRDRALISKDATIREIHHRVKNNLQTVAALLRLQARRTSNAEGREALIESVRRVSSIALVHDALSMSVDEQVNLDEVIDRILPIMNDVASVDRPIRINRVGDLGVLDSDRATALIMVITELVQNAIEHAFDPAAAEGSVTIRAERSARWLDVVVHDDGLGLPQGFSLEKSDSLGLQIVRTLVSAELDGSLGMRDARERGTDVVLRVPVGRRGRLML
As to the kind of experiment: MST.

One substance from paper doi:10.1101/2025.03.06.641775 can be followed below.

Results are given in words; binding and its absence hold for the method and conditions named. Sequences can lack the tags named with a protein.

In the case of “M. tuberculosis MutT1 (MtbMutT1), wild type (from UniProt P9WIY3 1-317) (enzyme)”, the binding entry is “no binding (tested: 0.45 nM to 15 μM)”.
